From paper PMC9050003, “N- and C-terminal regions of the small heat shock protein IbpA from Acholeplasma laidlawii competitively govern its oligomerization pattern and chaperone-like activity†” (RSC Advances, 2020)
Changes are numbered by the printed parent chain. Results are given in words; binding and its absence hold for the method and conditions named. Some binding calls cover weakened binding; strength is not graded here. For some assays here: Sequences can lack the tags named with a protein.

Sequences of proteins named here, by UniProt entry; tags and fusion partners are left off. A change or cut given only in a name is not applied to a line headed by its entry.
UniProt P01317: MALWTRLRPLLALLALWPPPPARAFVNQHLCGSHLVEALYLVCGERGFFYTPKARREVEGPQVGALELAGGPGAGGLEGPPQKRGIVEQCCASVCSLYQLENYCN

How the values were obtained:
[1] = biological target: T1, AlIbpASEP (Acholeplasma laidlawii) (UniProt A9NFB2); assay: pull-down; His6-AlIbpA proteins (0.4 mg) and bovine insulin (0.4 mg) in 300 μl 50 mM Tris–HCl pH 8.0, 200 mM NaCl, 30 min at 37 °C; Ni-NTA sepharose, eluted with 500 mM imidazole; 17.5% SDS-PAGE; grade from the ratio of band densities; both purified
T1 sequence: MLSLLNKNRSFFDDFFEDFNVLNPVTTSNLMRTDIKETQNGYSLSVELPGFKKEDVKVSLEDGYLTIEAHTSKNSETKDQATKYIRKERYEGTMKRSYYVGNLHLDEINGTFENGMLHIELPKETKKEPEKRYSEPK

[2] = biological target: T2, full-length recombinant AlIbpA (small heat shock protein IbpA from Acholeplasma laidlawii), His6-tagged (Acholeplasma laidlawii) (UniProt A9NFB2); assay: SPR; BIAcore T200; His6-AlIbpA proteins immobilised on Ni2+-loaded NTA chip (FC2, about 2000 RU); His6-TnrA20 on FC1 as control, response difference FC2 − FC1; ADH 1.0 mg ml^−1 injected at 10 μl min^−1; 10 mM Na2HPO4, 150 mM NaCl, pH 7.4; KD calculated from the binding curve slopes; both purified
T2 sequence: T1 sequence with S134L, P136L

With “bovine insulin (from UniProt P01317 25-54; P01317 85-105)” the binding [1] was “no binding (tested: 0.4 mg of each protein in 300 μl)” and the binding [2] was “binds weakly”.
